The nature of the data set: in vitro. To be noted: African green monkey, CC50, Vero E6, no virus.

Molecules are shown by their SMILES. Bounds are passed on as bounds.

For the compound `CC(C)c1c(C(=O)Nc2ccccc2)c(-c2ccccc2)c(-c2ccc(F)cc2)n1CC[C@@H](O)C[C@@H](O)CC(=O)O` [Atorvastatin], the CC50 at 3 days was > 20 µM.

Source of the values: PMC8033486 (Frontiers in Pharmacology, 2021).
